From PubChem BioAssay AID652054 (National Center for Advancing Translational Sciences (NCATS), 2013)
The campaign covered roughly 360,000 compounds. About 9,100 (2.5%) were called active. Inconclusive means that the source gave no clear call. Such entries were picked first, then a sample of the others. Cut-off read from the data, not from the text of the source: active = max response below about -50%; inconclusive = no clear call, values can overlap the other calls; inactive = above that.

The chains behind the UniProt entries cited, without tags or fusion partners.
UniProt P35462, whole entry, looked up: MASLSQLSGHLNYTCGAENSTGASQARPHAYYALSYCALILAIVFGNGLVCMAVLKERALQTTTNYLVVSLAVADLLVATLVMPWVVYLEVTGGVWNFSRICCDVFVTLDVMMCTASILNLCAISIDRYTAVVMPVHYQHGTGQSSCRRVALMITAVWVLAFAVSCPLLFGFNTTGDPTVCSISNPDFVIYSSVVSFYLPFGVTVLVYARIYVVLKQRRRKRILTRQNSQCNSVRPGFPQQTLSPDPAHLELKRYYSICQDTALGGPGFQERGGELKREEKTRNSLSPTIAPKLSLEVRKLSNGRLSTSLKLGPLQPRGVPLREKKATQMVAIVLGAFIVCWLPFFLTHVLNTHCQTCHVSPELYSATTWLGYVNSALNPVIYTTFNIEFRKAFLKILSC

These compounds were tested against D(3) dopamine receptor (Homo sapiens) (UniProt P35462) (assay: qHTS of D3 Dopamine Receptor Antagonist: qHTS). Conditions: D3R cells, DiscoveRx beta-arrestin luminescence, antagonist mode; stronger effect = lower value.
Summary of the method: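 Cells expressing the human receptor were seeded at 1500 cells/well, incubated overnight at 37 degrees C in 5% CO2, then exposed to library compounds with dopamine controls for 90 minutes at 37 degrees C before luminescent detection.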
% is set by controls: 0 for no effect and ±100 for the full control effect.

| Structure (SMILES) | max response, negative = inhibition |
| --- | --- |
| CCOC(=O)/C=C(/C)N1N=C(c2ccc(OC)cc2)CC1c1cccc([N+](=O)[O-])c1 (stereo not given) | inconclusive: -39.1% |
| Cc1ccc(-c2cc(C(=O)N3CCN(c4ccc(F)cc4)CC3)c3ccccc3n2)o1 | inactive: 44.8% |
| Cc1nc(Nc2cc(F)ccc2C)c2nnn(Cc3ccccc3)c2n1 | inactive: -13.9% |
| CCCCCCCN1CCC(=O)N(CCO)CC1 | inconclusive: -42.1% |
| N#Cc1ccc(CN2CCN(CC(=O)NCCc3ccc(Cl)cc3Cl)CC2)cc1 | inconclusive: -48.4% |
| N#Cc1ccccc1NC(=O)c1cc(=O)c2ccccc2o1 | inactive: -8.47% |
| CC(NC(=O)COC(=O)CN1C(=O)NC2(CCCC2)C1=O)c1ccc(F)cc1 (stereo not given) | inconclusive: -31.7% |
| CCOc1cccc(N2CCN(CCNC(=O)Nc3ccc(C)cc3)CC2)c1C | inconclusive: -49.1% |
| O=C(NC(c1ccc(Cl)cc1)c1cnccn1)C1CCN(CCCOc2ccccc2)CC1 (stereo not given) | active: -84.2% |
| O=C(c1ccccc1)N1CCN(C(=O)c2ccccc2)c2ccccc21 | inactive: -11.8% |
| COc1cccc(N2CC(C(=O)Nc3nnc(SCC(=O)c4ccccc4)s3)CC2=O)c1 (stereo not given) | inactive: 0% |
| CCN1C(=O)[C@H]2[C@@H](c3ccc(-c4cccc(Cl)c4)cc3)N[C@@](Cc3ccccc3)(C(=O)OC)[C@H]2C1=O | inactive: -7.99% |
| COC(CN(C)C(=O)C1CCCN(S(=O)(=O)c2ccc3c(c2)oc(=O)n3C)C1)OC (stereo not given) | inactive: -1.67% |
| Cc1ccc(-c2nnn(CC(=O)N(CCO)C(C(=O)NC(C)(C)C)c3ccncc3)n2)cc1 (stereo not given) | inconclusive: -34.2% |
| Cc1cc(NC(=O)CSc2cn(CCNC(=O)c3ccc(Cl)cc3)c3ccccc23)no1 | inactive: -14.9% |
| CC1CCN(CC(=O)NC2CCCCC2)CC1 | inconclusive: -30.8% |
| CC1CCN(CCc2nc3cc(NC(=O)NC4CCCCC4)ccc3n2C)CC1 | active: -85.5% |
| COC(=O)c1ccc(CN(c2ccccc2OC)S(=O)(=O)c2cccs2)o1 | inconclusive: -30.9% |
| Clc1ccc(-c2cccc3nccn23)c(Cl)c1 | inactive: 15.7% |
| O=C1C=C(N(CCO)Cc2ccccc2)c2ccccc2C1=O | inconclusive: -49.4% |
| O=C(NCc1cccc(C(F)(F)F)c1)C1CC(c2c(Cl)cccc2Cl)=NO1 (stereo not given) | inconclusive: -32.3% |
| COCC(=O)N(C)[C@H]1C[C@H]2c3[nH]c4ccccc4c3CCN2C(=O)[C@H]1[C@H](C)O | inconclusive: -39.6% |
| CCCn1c(N2CCN(CC(=O)Nc3ccc4c(c3)OCCO4)CC2)nc2ccccc21 | inconclusive: -32.4% |
| Cc1c(C(c2ccc(N(C)C)cc2)c2c(C)n(C)n(-c3ccccc3)c2=O)c(=O)n(-c2ccccc2)n1C | inconclusive: -30.1% |
| COc1ccc(O)cc1CN1CCN(c2ncc(Cc3ccccc3)cn2)CC1 | inconclusive: -40.4% |
| CNC(=O)c1nnsc1S(=O)c1ccc(Cl)cc1 (stereo not given) | active: -55.5% |
| CNC(=O)/C(C#N)=C/c1ccc(-c2ccc(OC)cc2[N+](=O)[O-])o1 | inconclusive: -40% |
| Cc1ccc(OCC(=O)NCCNC(=O)c2ccc(C)nc2)cc1 | inactive: -15.6% |

Of the compounds above, these have a cyano group:

| Structure (SMILES) | max response, negative = inhibition |
| --- | --- |
| N#Cc1ccc(CN2CCN(CC(=O)NCCc3ccc(Cl)cc3Cl)CC2)cc1 | inconclusive: -48.4% |
| N#Cc1ccccc1NC(=O)c1cc(=O)c2ccccc2o1 | inactive: -8.47% |
| CNC(=O)/C(C#N)=C/c1ccc(-c2ccc(OC)cc2[N+](=O)[O-])o1 | inconclusive: -40% |

The list goes on:

| Structure (SMILES) | max response, negative = inhibition |
| --- | --- |
| Cc1nc2ccc(S(=O)(=O)NCC(=O)NCCN3CCCCCC3)cc2s1 | inconclusive: -32.4% |
| COc1ccc(-c2noc([C@@H]3O[C@H](CO)[C@H](O)[C@H](O)[C@H]3O)n2)cc1OC | inconclusive: -44.8% |
| CCOC(=O)C(NC(=O)c1cccc(Cl)c1)(OCc1ccccc1)C(F)(F)F (stereo not given) | inactive: -10.2% |
| O=C(Nc1sc(-c2ccccc2)cc1C(=O)O)c1ccccc1 | inconclusive: -45.4% |
| CCc1ccccc1NC(=O)Nc1cnccn1 | inactive: -4.81% |
| O=Cc1cc(N=Nc2ccc(S(=O)(=O)O)cc2)ccc1O | inconclusive: -48% |
| Cc1ccc(NC2=CC(=O)CC(c3ccc(Cl)cc3)C2)cc1 (stereo not given) | inconclusive: -34.6% |
| Cc1ccccc1-c1cccc([C@@H]2C[C@H]3[C@H](CON3C)CN2C(=O)C(C)(C)C)c1 | inconclusive: -34.4% |
| N#C/C(=C\c1cccnc1)C(=O)Nc1ccc(Cl)cc1 | inconclusive: -32.2% |
| CCc1sc(C(=O)NCCCn2ccnc2)cc1Br | inconclusive: -48.7% |
| CC(C)NC(=O)Cn1c(SCC(=O)N2CCc3ccccc3C2)nc2ccccc21 | inactive: -4.43% |
| O=C(CCN1CCCCCC1)Nc1cccc(F)c1 | inconclusive: -38.4% |
| C[C@H](NC(=O)c1nc[nH]c1C(=O)NC1CCN(C(=O)OC(C)(C)C)CC1)C(=O)OCc1ccccc1 | inactive: 73.9% |
| CNC(=S)NNC(=O)CCn1nc(C)c(Br)c1C | inconclusive: -34% |
| O=C(COC(=O)c1c(F)cccc1F)NC(=O)NCc1ccccc1 | inconclusive: -31.5% |
| Cc1nc(C)c(C(=O)NCc2ccc(Cl)cc2)o1 | inconclusive: -33.8% |
| O=S(=O)(c1ccccc1)c1nc(-c2ccccc2)oc1NCc1cccnc1 | inactive: 1.75% |
| CCOP(=O)(/C(C#N)=C(\C)O)c1ccccc1 (stereo not given) | inactive: 2.45% |
| CC(=NOC(=O)c1ccc(F)cc1)c1nccs1 | inconclusive: -47.6% |
| CCOC(=O)c1sc(N2N=C(C)/C(=C\c3ccc(OCC(=O)OC)cc3)C2=O)nc1C | active: -70.3% |
| COc1ccc(CC(N)c2csc(NC(=O)Nc3ccccc3-c3ccccc3)n2)cc1 (stereo not given) | inactive: 8.64% |
| O=C1c2ccccc2-n2c1nc1ccccc1c2=O | inconclusive: -44.8% |
| Cc1ccc(-c2n[nH]c(=S)n2/N=C/C=C/c2ccccc2[N+](=O)[O-])cc1 | inconclusive: -45.8% |
| CCCC(=O)NC(c1ccc2c(c1)OCO2)c1cc(Cl)c2cccnc2c1O (stereo not given) | inactive: -10.4% |
| O=C(NCc1ccc(C(F)(F)F)cc1)c1ccc(-c2ccc(F)c(F)c2)c2ccoc12 | inconclusive: -40.8% |
| O=C(NNC(=O)C1CC(c2cccnc2)=NO1)Nc1ccccc1F (stereo not given) | inactive: -2.42% |
| COc1ccc2ccccc2c1/C=N/NC(=O)c1ccc([N+](=O)[O-])cc1 | active: -97.1% |
